Test results: patent US20160215065A1 (Genentech, published 2016)
Results are given in words; binding and its absence hold for the method and conditions named. Some results given as binding are weak or reduced against the parent protein; the word gives no strength.

Target: T1, mouse zymogen NSP4 (mZ) (mouse), Q14B24
T1 chain: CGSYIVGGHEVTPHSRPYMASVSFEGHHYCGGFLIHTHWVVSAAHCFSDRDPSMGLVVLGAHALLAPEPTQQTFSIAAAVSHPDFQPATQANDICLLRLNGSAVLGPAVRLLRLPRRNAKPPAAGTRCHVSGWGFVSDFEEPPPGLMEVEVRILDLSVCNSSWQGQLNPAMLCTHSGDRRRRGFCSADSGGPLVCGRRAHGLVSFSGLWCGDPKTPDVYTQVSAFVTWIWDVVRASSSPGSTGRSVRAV
Experiment: BLI; IgG1 on anti-human Fc sensor, NSP4 variant in solution, concentration not on sheet
Settings: remark: other sources report otherwise

B1: anti-NSP4 antibody 5-2 (antibody, V domains shown)
VH: EVQLVESGGGLVQPGGSLRLSCAASGFTFSNTYISWVRQAPGKGLEWVGFIYPANGATYYADSVKGRFTISADTSKNTAYLQMNSLRAEDTAVYYCARRYRLSFDYWGQGTLVTVSS
VL: DIQMTQSPSSLSASVGDRVTITCRASQDVSTAVAWYQQKPGKAPKLLIYSASFLYSGVPSRFSGSGSGTDFTLTISSLQPEDFATYYCQQSYTTPPTFGQGTKVEIKR
- binding: binds
